Results published in publication PMC12803514.
Construct, isoform or probe ends are uncertain for at least one entry. For part of these data: A weaker result is weaker than the reference pair of the same experiment. For part of these data: Results from cells or extracts need not show a direct contact. For part of these data: The direction of at least one scale is not stated here.

Chains of the proteins cited; added tags and fusions are not shown.
UniProt Q15717, whole entry: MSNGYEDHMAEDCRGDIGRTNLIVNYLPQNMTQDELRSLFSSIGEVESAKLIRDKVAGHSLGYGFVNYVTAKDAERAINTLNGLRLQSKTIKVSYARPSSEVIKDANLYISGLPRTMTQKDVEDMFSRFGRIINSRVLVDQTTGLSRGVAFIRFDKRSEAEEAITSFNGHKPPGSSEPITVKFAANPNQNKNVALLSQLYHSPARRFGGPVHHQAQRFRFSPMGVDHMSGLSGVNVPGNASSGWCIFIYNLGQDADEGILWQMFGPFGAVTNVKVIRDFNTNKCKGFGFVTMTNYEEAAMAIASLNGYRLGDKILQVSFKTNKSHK

How the values were obtained:
[1] = biological target: HuR (ELAVL1 human recombinant protein) (Homo sapiens) (UniProt Q15717); assay: EMSA; details: HuR 0-150 µM as printed (25-200 µM in Methods); 20 mM HEPES pH 7.6, 3 mM MgCl2, 40 mM KCl, 5% glycerol, 2 mM DTT, 20 µg yeast tRNA, 20 U RNasin, 20 µL, on ice 10 min (plus 15 min with antibody); 5% native PAGE; commercial protein
[2] = biological target: HuR in whole-cell extract (Homo sapiens) (UniProt Q15717); assay: EMSA supershift; details: anti-HuR 3A2, 10 µg whole-cell extract; 20 mM HEPES pH 7.6, 3 mM MgCl2, 40 mM KCl, 5% glycerol, 2 mM DTT, 20 µg yeast tRNA, 20 U RNasin, 20 µL, on ice 10 min (plus 15 min with antibody); 5% native PAGE; protein in an extract

| Sequence | binding result [1] | binding signal (fold (reference)) [2] | binding signal (fold vs rs13900C) [2] |
| --- | --- | --- | --- |
| CUUUCCCCAGACACCCUGUUUUAUUU [rs13900C oligoribonucleotide] | binds more weakly | 1 | – |
| CUUUCCCCAGACACCUUGUUUUAUUU [rs13900T oligoribonucleotide] | – | – | 7 |
